# Results: PMC7819943, “Rice protein-binding microarrays: a tool to detect cis-acting elements near promoter regions in rice”
# Chains of the proteins cited; added tags and fusions are not shown.
# UniProt Q0JBA9, entry or part of it: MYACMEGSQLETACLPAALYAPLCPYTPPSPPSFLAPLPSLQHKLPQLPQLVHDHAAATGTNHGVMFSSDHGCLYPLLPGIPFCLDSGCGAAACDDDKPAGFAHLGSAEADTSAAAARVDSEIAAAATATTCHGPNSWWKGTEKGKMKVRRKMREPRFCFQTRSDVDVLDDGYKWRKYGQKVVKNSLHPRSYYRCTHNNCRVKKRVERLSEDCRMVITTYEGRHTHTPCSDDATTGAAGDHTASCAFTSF
# Some of the results follow.
# Target: OsWRKY34 (Oryza sativa, UniProt Q0JBA9 1-250)
# Test: protein-binding microarray (RPBM); PBS, 2% BSA, 51.3 ng/ul salmon testes DNA, 50 uM zinc acetate, 200 nM TF, 25 C, 1 h; high values mean tight binding
# Conditions: protein: recombinant; tags: N-terminal polyhistidine and DsRed monomer fusion (pET32a); label: CyDye5-dUTP incorporated in the synthesized complementary strand; 3' TTTTT single-stranded linker to array surface; dsDNA, one strand shown
# Procedure, shortened: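 The binding signal is fluorescence intensity per array feature (arbitrary units). Readings came from an Axon 4000B scanner after a washed, 2% BSA-blocked, double-stranded custom Agilent array had been incubated for 1 h at 25 °C with 200 nM protein and 50 µM zinc acetate. The protein was a Ni–NTA-purified transcription factor fused N-terminally to polyhistidine and DsRed, expressed in E. coli BL21-CodonPlus.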
row,Sequence,binding signal
1,TTAGGTCATTCCCTAATATTTTCGTTTTTCTTTTTTTTTTCGGAGTCACCTAGTGCAG,8870 fluorescence intensity (a.u.)
2,TGATCTTTTGTTTCCTGCTTGGTATAGTATAAGCTCTCATCGGAGTCACCTAGTGCAG,8800 fluorescence intensity (a.u.)
3,CGAAGACACCGGAGCCACCACTCGCCGCCCGCCTATTTCACGGAGTCACCTAGTGCAG,10400 fluorescence intensity (a.u.)
4,CAGTTTACCTGCGCCGCGGCCGCCACAGATTCACACCGCCCGGAGTCACCTAGTGCAG,8440 fluorescence intensity (a.u.)
5,TGCCTCACCACCGGCGACACCATCATGGTGGCCTACAACACGGAGTCACCTAGTGCAG,8270 fluorescence intensity (a.u.)
6,TCCCCACGTTGCATCCCGTCATCCCCATCGAGCGATCCCCCGGAGTCACCTAGTGCAG,9460 fluorescence intensity (a.u.)
7,TGAAAAGAAACGGTCGCCATCACTGTCCTGAGATCTCATCCGGAGTCACCTAGTGCAG,9350 fluorescence intensity (a.u.)
8,TTGGTTTGGTTGCTCCTCGCGCTGTTATTGGTTGCTCCTCCGGAGTCACCTAGTGCAG,19900 fluorescence intensity (a.u.)
9,CCGTTTTTCTTTCCTGTGGCTGCATACATCCCAAAATCAACGGAGTCACCTAGTGCAG,12200 fluorescence intensity (a.u.)
10,TCCCTTTTTTTCCCGTATGGATGCTAAACCCTAATCTATTCGGAGTCACCTAGTGCAG,9060 fluorescence intensity (a.u.)
11,GTGCATACATTCTTTCTTTTTTCCACTCTAGTAATTCATACGGAGTCACCTAGTGCAG,8550 fluorescence intensity (a.u.)
12,TGCACTTACATCTCAACCTGATCTATGTCCTTATGCACTTCGGAGTCACCTAGTGCAG,10200 fluorescence intensity (a.u.)
13,ACCCTTTGTTTTGGTTTGATTTTCAAATCTACATTTATACCGGAGTCACCTAGTGCAG,8120 fluorescence intensity (a.u.)
14,ATTTTTGGTTTTCTGTCATCAGTCATCACCCTTCTCTTTTCGGAGTCACCTAGTGCAG,8820 fluorescence intensity (a.u.)
15,CTGTCCTGTATAGCTATCTCATCTATCTCTTCCCATGCATCGGAGTCACCTAGTGCAG,10500 fluorescence intensity (a.u.)
16,ACCAACCAGTACTTTTGCAATGCCAAAATTTTTGCCACCACGGAGTCACCTAGTGCAG,9040 fluorescence intensity (a.u.)
17,ATCTCTTGTGTTTTATGTGAACCAGTAATTCTTGTCCTTGCGGAGTCACCTAGTGCAG,9750 fluorescence intensity (a.u.)
18,GTCAACACCACCAACGGACAGGGATATCTTTGCAAGTGCTCGGAGTCACCTAGTGCAG,9460 fluorescence intensity (a.u.)
19,TCCCTTGCTGTTTCATTTCGTACGTACTCCGCGCTCGGGACGGAGTCACCTAGTGCAG,13400 fluorescence intensity (a.u.)
20,GGCTCTGGACTCTGGTTGATCAACTCCCTAACTTTTTTTTCGGAGTCACCTAGTGCAG,10100 fluorescence intensity (a.u.)
21,CCAATCTATCAATGCGGACATCTCGATATATATATATATACGGAGTCACCTAGTGCAG,8330 fluorescence intensity (a.u.)

row,Sequence,binding signal
1,GGTAGAGAGGGTTCTTGCTTTGCTTAGCTCCATTGTTTTTCGGAGTCACCTAGTGCAG,9130 fluorescence intensity (a.u.)
2,TCGCTCTTCTCCGACAACCGCGTGCTGCTCCGGCAATTCTCGGAGTCACCTAGTGCAG,9290 fluorescence intensity (a.u.)
3,CGTTGATCATGCATACCTTTACATCTGTCATGAAACACATCGGAGTCACCTAGTGCAG,8850 fluorescence intensity (a.u.)
4,CAGCATTGATCTGGTTTTCCATCGGAATTTGCAGCTTGTCCGGAGTCACCTAGTGCAG,8100 fluorescence intensity (a.u.)
5,CCTGATGTGCTTGTAGGGCGGTGTTCTTGTGTGTGTGTGTCGGAGTCACCTAGTGCAG,9580 fluorescence intensity (a.u.)
6,CCTATTTCGACTACTCTCTTTGTAATTTGTTCTTGTTATCCGGAGTCACCTAGTGCAG,9970 fluorescence intensity (a.u.)
7,GAACGTATTTCTTGCCTATATTATCTTTAATATTTTTTATCGGAGTCACCTAGTGCAG,8780 fluorescence intensity (a.u.)
8,TGCATACCCTCAATCATTTCCTTGTTTTATCTTCTTTCAGCGGAGTCACCTAGTGCAG,8350 fluorescence intensity (a.u.)
9,GCCTCACGTTTGCCAGTTGGGTTGGGACTTGGGATGGGCCCGGAGTCACCTAGTGCAG,10500 fluorescence intensity (a.u.)
10,CAAATACAACCAATCCATCGCCTCGTCTCCATATAAAACCCGGAGTCACCTAGTGCAG,10300 fluorescence intensity (a.u.)
11,GGGCTGCTCCATTATATCTTGCCAATTGTTTTTCATTGTCCGGAGTCACCTAGTGCAG,14400 fluorescence intensity (a.u.)
12,CCACCACCACCACCTCCGATCCGATCTGCTCCACCGCCACCGGAGTCACCTAGTGCAG,12500 fluorescence intensity (a.u.)
13,CCATGTCCTTTCCGCTAGTTGACCGTTAGTTGACTGTTAACGGAGTCACCTAGTGCAG,9680 fluorescence intensity (a.u.)
14,GTCTGCTGGTGTTTTTCGCGCGATGAAAGCGTGGGGAAACCGGAGTCACCTAGTGCAG,9210 fluorescence intensity (a.u.)
15,ATCATGTCGTCGTTGCGTCGTCATCGTTGTTCTTCGTCGACGGAGTCACCTAGTGCAG,9110 fluorescence intensity (a.u.)
16,CGAGTTTGTCTTCTTTTCCCACTGAAGTAATGCTTTATACCGGAGTCACCTAGTGCAG,10400 fluorescence intensity (a.u.)
17,GGGCTAAGGGTTGTTGAGTCGGGTGTGTGGTGTATAAATCCGGAGTCACCTAGTGCAG,11200 fluorescence intensity (a.u.)
18,AAGCTTCCTCACCTCTTTGCTTCCTCACCTTCTTGCCAGACGGAGTCACCTAGTGCAG,9330 fluorescence intensity (a.u.)
19,AACCAAGAAGCCAAAGCTTCCATTGATCACTCGCTCTGCTCGGAGTCACCTAGTGCAG,8380 fluorescence intensity (a.u.)
20,CCCCGCGCCTGTTTTGGCCATCTATACCTACAACACGCGACGGAGTCACCTAGTGCAG,9040 fluorescence intensity (a.u.)
21,GTTCCATACCCAACGTTTGACCGTCCGTCTTATTTGAAAACGGAGTCACCTAGTGCAG,9980 fluorescence intensity (a.u.)

# Retrieved one by one from the list above, 3 records:
row,Sequence,binding signal
20,CCCCGCGCCTGTTTTGGCCATCTATACCTACAACACGCGACGGAGTCACCTAGTGCAG,9040 fluorescence intensity (a.u.)
10,CAAATACAACCAATCCATCGCCTCGTCTCCATATAAAACCCGGAGTCACCTAGTGCAG,10300 fluorescence intensity (a.u.)
5,CCTGATGTGCTTGTAGGGCGGTGTTCTTGTGTGTGTGTGTCGGAGTCACCTAGTGCAG,9580 fluorescence intensity (a.u.)
